In patent US20220040301A1:
No constants are given. Whether binding was seen depends on the method and setting. Some binding calls cover weakened binding; strength is not graded here.

Protein sequences, listed by entry. Tags and fused reporters are not part of them. Residues count along the entry.
UniProt P05231, residues 30-212: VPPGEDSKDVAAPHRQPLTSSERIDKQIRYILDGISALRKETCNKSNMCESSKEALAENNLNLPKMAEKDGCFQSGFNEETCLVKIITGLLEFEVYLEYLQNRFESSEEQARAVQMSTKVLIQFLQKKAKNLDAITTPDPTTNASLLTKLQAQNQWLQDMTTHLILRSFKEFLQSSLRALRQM

Legend:
[1] = molecular target: interleukin 6 (IL-6) (UniProt P05231); experiment: IL-6 binding ELISA and cell based bioassay; 10 and 50 mg/mL
[2] = molecular target: interleukin 6 (IL-6) (UniProt P05231); experiment: IL-6 binding ELISA and HEK Blue cell-based bioassay; accelerated and stress storage
[3] = molecular target: interleukin 6 (IL-6) (UniProt P05231); experiment: IL-6 binding ELISA and HEK Blue Bioassay; long term storage at 5 ± 3°C
[4] = molecular target: interleukin 6 (IL-6) (UniProt P05231); experiment: IL-6 binding ELISA after 9-12 months at 2-8°C

Measured: binding

B1: COR-001 antibody (antibody, human IgG1, kappa, V domains shown)
VH: EVQLVESGGGLVQPGGSLRLSCAASGFTISSNYMIWVRQAPGKGLEWVSDLYYYAGDTYYADSVKGRFTMSRDISKNTVYLQMNSLRAEDTAVYYCARWADDHPPWIDLWGRGTLVTVSS
VL: DIQMTQSPSTLSASVGDRVTITCRASQGISSWLAWYQQKPGKAPKVLIYKASTLESGVPSRFSGSGSGTEFTLTISSLQPDDFATYYCQQSWLGGSFGQGTKLEIKR
binds: all assays above
